According to PMC12992792:
These are yes or no findings as the source states them, for the method shown. In cells and extracts the contact can be indirect. A yes stands for co-enrichment or nearness to the bait. Other partners may have been found. For some assays here: A no says only that the protein was not detected with the bait. For some assays here: Where a sequence is shown, tags or fusion partners need not be part of it. Blank lines part the entries; values can stand above or below the molecule they belong to.

Legend:
Test in all cases: affinity purification with mass spectrometry; anti-FLAG M2 magnetic beads on ovary lysates of transgenic D. melanogaster expressing the LAP-tagged bait; 3 h at 4 °C; 20 mM Tris-HCl pH 7.5, 150 mM NaCl, 2 mM MgCl2, 10% glycerol, 1 mM DTT, 0.2% IGEPAL CA-630; four biological replicates; enrichment against a control IP
[1] = molecular target: T1, GFP-DmDeadlock (D. melanogaster) (UniProt Q9VIF5)
T1 sequence: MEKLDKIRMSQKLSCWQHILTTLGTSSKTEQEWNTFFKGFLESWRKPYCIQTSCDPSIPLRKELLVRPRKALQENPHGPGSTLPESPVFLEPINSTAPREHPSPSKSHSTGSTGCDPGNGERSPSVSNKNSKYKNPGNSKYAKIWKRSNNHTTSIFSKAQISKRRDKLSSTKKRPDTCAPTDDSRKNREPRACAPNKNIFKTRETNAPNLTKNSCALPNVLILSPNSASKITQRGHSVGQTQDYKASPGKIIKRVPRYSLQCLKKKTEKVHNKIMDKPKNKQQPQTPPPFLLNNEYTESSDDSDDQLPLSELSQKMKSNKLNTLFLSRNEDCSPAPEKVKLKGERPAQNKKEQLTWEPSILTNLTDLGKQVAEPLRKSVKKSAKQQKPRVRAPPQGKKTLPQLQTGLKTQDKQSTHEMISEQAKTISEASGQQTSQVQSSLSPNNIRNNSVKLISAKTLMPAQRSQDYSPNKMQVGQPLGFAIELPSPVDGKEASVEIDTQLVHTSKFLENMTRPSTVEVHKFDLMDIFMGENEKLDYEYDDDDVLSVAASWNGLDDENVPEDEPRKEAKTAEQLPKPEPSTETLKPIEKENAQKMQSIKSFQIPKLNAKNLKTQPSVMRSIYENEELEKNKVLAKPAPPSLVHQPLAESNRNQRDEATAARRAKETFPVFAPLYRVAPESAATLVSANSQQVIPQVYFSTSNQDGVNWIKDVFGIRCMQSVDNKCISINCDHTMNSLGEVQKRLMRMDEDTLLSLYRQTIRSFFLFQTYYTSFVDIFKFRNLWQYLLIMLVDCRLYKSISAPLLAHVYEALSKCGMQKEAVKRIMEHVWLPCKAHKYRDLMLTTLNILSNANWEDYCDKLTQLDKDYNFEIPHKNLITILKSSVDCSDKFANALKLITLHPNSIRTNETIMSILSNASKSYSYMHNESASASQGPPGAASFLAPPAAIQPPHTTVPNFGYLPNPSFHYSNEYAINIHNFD

[2] = molecular target: GFP-DeDeadlock (D. erecta)
[3] = molecular target: GFP-DsDeadlock (D. simulans)
[4] = molecular target: DmBootlegger-GFP (C-terminally tagged D. melanogaster Bootlegger) (D. melanogaster)
[5] = molecular target: GFP-DsBootlegger (N-terminally tagged D. simulans Bootlegger) (D. simulans)

binding [4]: binds
B2: Piwi (endogenous, D. melanogaster ovaries) (protein, UniProt Q9VKM1 1-843)
chain: MADDQGRGRRRPLNEDDSSTSRGSGDGPRVKVFRGSSSGDPRADPRIEASRERRALEEAPRREGGPTERKPWGDQYDYLNTRPAELVSKKGTDGVPVMLQTNFFRLKTKPEWRIVHYHVEFEPSIENPRVRMGVLSNHANLLGSGYLFDGLQLFTTRKFEQEITVLSGKSKLDIEYKISIKFVGFISCAEPRFLQVLNLILRRSMKGLNLELVGRNLFDPRAKIEIREFKMELWPGYETSIRQHEKDILLGTEITHKVMRTETIYDIMRRCSHNPARHQDEVRVNVLDLIVLTDYNNRTYRINDVDFGQTPKSTFSCKGRDISFVEYYLTKYNIRIRDHNQPLLISKNRDKALKTNASELVVLIPELCRVTGLNAEMRSNFQLMRAMSSYTRMNPKQRTDRLRAFNHRLQNTPESVKVLRDWNMELDKNVTEVQGRIIGQQNIVFHNGKVPAGENADWQRHFRDQRMLTTPSDGLDRWAVIAPQRNSHELRTLLDSLYRAASGMGLRIRSPQEFIIYDDRTGTYVRAMDDCVRSDPKLILCLVPNDNAERYSSIKKRGYVDRAVPTQVVTLKTTKNRSLMSIATKIAIQLNCKLGYTPWMIELPLSGLMTIGFDIAKSTRDRKRAYGALIASMDLQQNSTYFSTVTECSAFDVLANTLWPMIAKALRQYQHEHRKLPSRIVFYRDGVSSGSLKQLFEFEVKDIIEKLKTEYARVQLSPPQLAYIVVTRSMNTRFFLNGQNPPPGTIVDDVITLPERYDFYLVSQQVRQGTVSPTSYNVLYSSMGLSPEKMQKLTYKMCHLYYNWSGTTRVPAVCQYAKKLATLVGTNLHSIPQNALEKKFYYL

binding [4]: binds
B4: Ago3 (endogenous, D. melanogaster ovaries) (protein, UniProt Q7PLK0 1-867)
chain: MSGRGNLLSLFNKNAGNMGKSISSKDHEIDSGLDFNNSESSGERLLSSHNIETDLITTLQHVNISVGRGRARLIDTLKTDDHTSNQFITSESKENITKKTKGPESEAIASENGLFFPDLIYGSKGSSVNIYCNYLKLTTDESKGVFNYEVRFFPPIDSVHLRIKYLNDHKDKLGGTKTFDGNTLYLPILLPNKMTVFISKAEDVELQIRILYKKKEEMRNCTQLYNILFDRVMKVLNYVKFDRKQFDPSRPKIIPLAKLEVWPGYVTAVDEYKGGLMLCCDVSHRILCQKTVLEMLVDLYQQNVEHYQESARKMLVGNIVLTRYNNRTYKINDICFDQNPTCQFEIKTGCTSYVEYYKQYHNINIKDVNQPLIYSIKKSRGIPAERENLQFCLIPELCYLTGLRDEVRSDNKLMREIATFTRVSPNQRQMALNKFYENVSNTPAAQEILNSWGLSLTNNSNKISGRQMDIEQIYFSKISVSAGRSAEFSKHAVTNEMLKVVHLSKWIIIHLRNYRQAATSLLDNMKQACESLGMNISNPTMISLDHDRIDAYIQALRRNITMNTQMVVCICHNRRDDRYAAIKKICCSEIPIPSQVINAKTLQNDLKIRSVVQKIVLQMNCKLGGSLWTVKIPFKNVMICGIDSYHDPSNRGNSVAAFVASINSSYSQWYSKAVVQTKREEIVNGLSASFEIALKMYRKRNGKLPTNIIIYRDGIGDGQLYTCLNYEIPQFEMVCGNRIKISYIVVQKRINTRIFSGSGIHLENPLPGTVVDQHITKSNMYDFFLVSQLVRQGTVTPTHYVVLRDDCNYGPDIIQKLSYKLCFLYYNWAGTVRIPACCMYAHKLAYLIGQSIQRDVAEALSEKLFYL

More lines, now with the values behind:

Molecule: Bootlegger (endogenous, D. melanogaster ovaries)
binding [1]: no binding

B1: Moonshiner (endogenous, D. melanogaster ovaries) (protein, UniProt Q9VYQ0 1-172)
chain: MAKILPTDGIWIPESCSFPEDVMIDMMEGLFRDVPNLTHKEYLALADLQSRWMAKLANRQPESNPLPPKPKKRKKIAPKKQDQPVEEKGSEVDIYDVDDNEMVNNRIYIPRLRSAWRARYFNIMMRAFVIKRGLLNKHINWQILDKIMAAPDAEGQAELQAFVDKVVAGQEM
binding [2]: binds
binding [3]: binds

B3: TFIIA-S (endogenous, D. melanogaster ovaries) (protein, UniProt P52656 1-106)
chain: MSYQLYRNTTLGNTLQESLDELIQYGQITPGLAFKVLLQFDKSINNALNQRVKARVTFKAGKLNTYRFCDNVWTLMLNDVEFREVHEIVKVDKVKIVACDGKSGEF
binding [2]: binds
binding [3]: binds

B5: Deadlock (endogenous, D. melanogaster ovaries) (protein, UniProt Q9VIF5 1-981)
chain: T1 sequence
binding [5]: binds
